Source: PubChem BioAssay AID1347076 (National Center for Advancing Translational Sciences (NCATS), 2019)
Among all 400,000 compounds or so, about 13,000 (3.2%) were called active. Inconclusive means that the source gave no clear call. Such entries were picked first, then a sample of the others. Calls come from the whole dose curve; as a rule, active = well fitted cell-killing curve with a large enough effect; inconclusive = small, poorly fitted or top-dose-only effect, or effect the other way; inactive = flat fitted curve, though single readings scatter. Potencies of inconclusive entries are doubtful fits and often do not repeat.

Test: qHTS assay for MDR1-selective chemotherapeutics: Primary screen using the drug-selected MDR subline cells KB-V1; note: nearly all actives have a fitted effect of over 60% in size
Settings: KB-V1 MDR cells viability, CellTiter-Glo, 72 h; activity change, negative = cytotoxicity: at 46.1 µM (top of the series)
Summary of the method: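 Luminescent ATP read-out (CellTiter-Glo, 10 min) measures survival of drug-selected KB-V1 MDR cells after 72 h, 37 degrees C compound exposure. Medium: phenol-red-free DMEM, 10% FBS. Values from fitted concentration-response curves.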
% is set by controls: 0 for no effect and ±100 for the full control effect; potency is the fitted concentration of half-maximal effect.

SMILES	activity change, negative = cytotoxicity	Potency
COc1ncnc2c1ncn2CCCNCC(c1ccccc1)c1ccccc1	inactive: 4.45%	–
Cc1[nH][nH]c(=O)c1C(c1ccc(-c2ccc(C(=O)O)cc2)o1)c1c(C)[nH][nH]c1=O	inactive: 4.5%	–
O=C(NNS(=O)(=O)c1ccc(F)cc1)c1ccc([N+](=O)[O-])cc1Cl	inactive: -24.7%	–
CN1CCCC(OC(=O)c2ccc3c(c2)OCCO3)C1 (centres undefined)	–	inconclusive: 23.1 µM [cytotoxic, partial curve, poor fit]
CCOC(=O)Cn1c(=NC(=O)C2COc3ccccc3O2)sc2cc(S(N)(=O)=O)ccc21 (centres undefined)	inactive: 10.6%	–
O=C(CN1CCCc2ccccc21)NCc1ccccc1Cl	–	inconclusive: 20.6 µM [cytotoxic, single point]
COc1cc(/C=C2/CCC/C(=C\c3cc(O)c(OC)c(Cl)c3)C2=O)cc(Cl)c1O	–	active: 8.2 µM
O=C(COc1ncnc2ccccc12)NC(=O)NCc1ccccc1	–	inconclusive: 16.4 µM [cytotoxic, partial curve, poor fit]
Cc1ccc(NC(=O)CN(C)C(=O)COC(=O)COc2ccc(C#N)cc2)cc1	–	inconclusive: 29.1 µM [rising, single point]
CCCCN1CC(=O)N2[C@H]3c4cc(C)ccc4OC[C@@H]3[C@H](c3ccccc3)[C@]2(C)C1=O	–	inconclusive: 4.61 µM [rising, full curve, poor fit]
COc1ccc(/C=C2\SC(=S)N(CCC(=O)N(CCO)Cc3ccccc3)C2=O)cc1OC	–	inconclusive: 4.11 µM [cytotoxic, full curve]
O=S(=O)(c1ccccc1)n1c(C(O)c2ccccn2)cc2ccccc21 (centres undefined)	–	inconclusive: 9.2 µM [cytotoxic, partial curve, poor fit]
Cc1nn2c(C)c(C(=O)NCc3ccco3)cnc2c1-c1ccccc1	inactive: -17.3%	–
Cc1ccc(NS(=O)(=O)c2coc(C(N)=O)c2)cc1F	–	inconclusive: 29.1 µM [rising, single point]
COc1cc(/C=N/Nc2snc(SC)c2C#N)ccc1O	–	inconclusive: 2.91 µM [cytotoxic, full curve]
Oc1c(CN2CCN(c3ccc(F)cc3)CC2)cc(Cl)c2cccnc12	–	active: 5.17 µM
Cc1ccc(-c2cc(C(=O)Nc3cccnc3)c3ccccc3n2)s1	–	inconclusive: 6.51 µM [cytotoxic, partial curve]
Cc1cc(-c2ccc(S(=O)(=O)NCc3ccc(Cl)cc3)cc2)on1	inactive: -0.2%	–
COc1ccc(SCC(=O)Nc2ccccc2Cl)cc1	–	inconclusive: 29.1 µM [rising, single point]
COc1ccc(C(=O)OCC(=O)N(Cc2ccccc2)Cc2ccccc2)c(O)c1	–	inconclusive: 18.4 µM [cytotoxic, partial curve, poor fit]
CC(=O)N1c2ccccc2S(=O)(=O)c2c1ccc1ccccc21	–	inconclusive: 18.4 µM [cytotoxic, single point]
Cc1ccc(NC(=O)COC(=O)Cn2nc(-c3ccc(F)cc3)oc2=O)cc1C	–	inconclusive: 36.6 µM [rising, partial curve, poor fit]
COc1ccc(N2CCN(C(=O)COC(=O)COc3cccc(C(F)(F)F)c3)CC2)cc1	–	inconclusive: 29.1 µM [rising, single point]

Entries of single compounds from above.
`O=C(COc1ncnc2ccccc12)NC(=O)NCc1ccccc1` as listed: Potency: inconclusive: 16.4 µM [cytotoxic, partial curve, poor fit]
`CCCCN1CC(=O)N2[C@H]3c4cc(C)ccc4OC[C@@H]3[C@H](c3ccccc3)[C@]2(C)C1=O` as listed: Potency: inconclusive: 4.61 µM [rising, full curve, poor fit]
`COc1ccc(/C=C2\SC(=S)N(CCC(=O)N(CCO)Cc3ccccc3)C2=O)cc1OC` as listed: Potency: inconclusive: 4.11 µM [cytotoxic, full curve]
`O=C(CN1CCCc2ccccc21)NCc1ccccc1Cl` as listed: Potency: inconclusive: 20.6 µM [cytotoxic, single point]

(cont.)

SMILES	activity change, negative = cytotoxicity	Potency
O=C(NC1CCCCC1)C(c1ccncc1)N(Cc1ccc2c(c1)OCO2)C(=O)c1cnsn1 (centres undefined)	–	inconclusive: 9.2 µM [cytotoxic, partial curve]
COc1ccccc1CN1CCC(n2nccc2NC(=O)CCOc2ccccc2)CC1	–	inconclusive: 32.6 µM [cytotoxic, partial curve, poor fit]
CN(C)CCN(C(=O)c1ccc(S(=O)(=O)N2CCc3ccccc32)cc1)c1nc2ccc(F)cc2s1	inactive: 8.01%	–
CC(C)c1cc(C(=O)NCc2ccco2)no1	–	inconclusive: 0.461 µM [rising, full curve, poor fit]
O=C(Nc1ccc(F)c(Cl)c1)N1CC=C(c2c[nH]c3ccccc23)CC1	inactive: 2.87%	–
CSc1ccc(CN(C)C(=O)COc2ccc(C(=O)c3ccccc3)cc2)cc1	–	active: 9.2 µM
COc1ccc(/C=N/NC(=O)c2ccncc2)cc1CSc1nc2ccccc2s1	–	inconclusive: 20.6 µM [cytotoxic, single point]
CCCN(CCC)C(=O)c1cc2c(=O)[nH]c3ccc(C)cc3c2s1	inactive: -18.6%	–
CCOc1ccccc1NC(=O)c1ccccc1N(C)S(=O)(=O)c1ccc(C)cc1	–	active: 11.6 µM
CN(C)c1ccc(C=NCC2COc3ccccc3O2)cc1 (centres undefined)	–	inconclusive: 20.6 µM [rising, single point]
NC(=S)Nc1ccc(Cl)c(Cl)c1	–	inconclusive: 25.9 µM [cytotoxic, single point]
Cc1ccc(N2CCN(C(=O)c3cnc(N4CCCCC4)c4ccccc34)CC2)c(C)c1	–	inconclusive: 29.1 µM [cytotoxic, single point]
O=C(COc1ccc(Cl)cc1)Nc1cccc(S(=O)(=O)NC2=NCCCCC2)c1	inactive: -13.6%	–
CC(=O)c1sc(Nc2ccccn2)nc1C	–	inconclusive: 25.9 µM [cytotoxic, single point]
COc1ccc(CN(C)CC(=O)Nc2cc(OC)c([N+](=O)[O-])cc2C)c(OC)c1	–	inconclusive: 11.6 µM [cytotoxic, partial curve]
O=C(CSc1ccc(-c2ccco2)nn1)Nc1ccc(F)cc1F	–	inconclusive: 20.6 µM [cytotoxic, single point]
CCOCCCNC(=S)NCCCNc1nc2c(C)c(C)ccc2cc1C#N	–	inconclusive: 14.6 µM [cytotoxic, single point]
O=C(Nc1ccc(OC(=O)c2ccco2)cc1)c1ccco1	inactive: 0%	–
COC(=O)c1cc(OC)c(OC)cc1NC(=O)c1c(-c2ccccc2Cl)noc1C	–	active: 3.26 µM
COc1ccc(-c2c(C(=O)O)nc3ccccc3c2C(=O)O)cc1	inactive: -17.7%	–
COC(=O)c1ccccc1NC(=O)c1noc2c1CCCC2	–	inconclusive: 18.4 µM [cytotoxic, single point]
CC1CCN(C(=O)CN(c2ccc(Oc3ccccc3)cc2)S(C)(=O)=O)CC1	–	inconclusive: 5.17 µM [cytotoxic, full curve, poor fit]
Cc1ccc(/C=C/C(=O)OC(C)C(=O)NC2CCCCC2C)o1 (centres undefined)	–	inconclusive: 20.6 µM [cytotoxic, single point]

SMILES	activity change, negative = cytotoxicity	Potency
CC(=O)Nc1ccc(-c2ccnc3c2CC(C(=O)NCc2ccccc2)O3)cc1 (centres undefined)	–	active: 1.3 µM
CCOC(=O)C1C(c2ccc(O)c(OC)c2)NC(=O)NC1(O)C(F)(F)F (centres undefined)	–	inconclusive: 20.6 µM [rising, single point]
CCOc1ccc(NC(=O)CSc2nc3ccccc3c(=O)n2CCCC(=O)N2CCCC2)cc1	–	inconclusive: 14.1 µM [cytotoxic, single point]
COc1ccccc1/C=C/C=N/NC(=O)c1cccs1	inactive: -19%	–
Cc1oc(-c2ccccc2F)nc1CS(=O)(=O)CC(=O)NCCN1CCCC1	–	inconclusive: 5.17 µM [rising, partial curve]
Nc1ncnc2c1ccn2[C@H]1CN(Cc2ccc3c(c2)OCO3)C[C@@H](COC(=O)c2ccccc2)O1	inactive: 4.66%	–
Cc1cccc(-n2cc(-c3ccccc3)c3c(N4CCOCC4)ncnc32)c1	–	inconclusive: 23.1 µM [cytotoxic, single point]
O=c1[nH]nnc2sc3c(c12)CCCC3	–	inconclusive: 29.1 µM [cytotoxic, single point]
O=S(=O)(c1ccccc1)c1nc(-c2ccco2)oc1NCc1ccccc1	inactive: -9.87%	–
Cc1ccc(C)c(CN2CCC(CNC(=O)Nc3ccc(Cl)cc3)CC2)c1	–	inconclusive: 29.1 µM [cytotoxic, partial curve, poor fit]
c1ccc2sc(C3CCN(Cc4nnnn4Cc4ccc5c(c4)OCO5)CC3)nc2c1	–	active: 16.4 µM
C=CCN1C(=O)C(O)(CC(=O)c2ccc(Cl)cc2)c2ccccc21 (centres undefined)	–	inconclusive: 23.1 µM [cytotoxic, partial curve, poor fit]
O=C1c2sc3nc4ccccc4n3c2C(=O)N1c1ccccc1Cl	–	inconclusive: 13 µM [cytotoxic, single point]
COc1ccc(O)c(/C=c2/sc3nc4cc(C)c(C)cc4n3c2=O)c1	–	active: 18.4 µM
Cc1cccc(NC(=O)CN(CC2CCCO2)C(=O)c2oc3ccc(F)cc3c2C)c1C (centres undefined)	–	active: 5.17 µM
Cc1ccc2[nH]nc(C(=O)N3CCCC(C(=O)c4ccc(Cl)cc4)C3)c2c1 (centres undefined)	–	inconclusive: 29.1 µM [cytotoxic, single point]
COc1cccc(NC(=O)C2(C)CCN2Cc2ccc(OC(C)C)cc2)c1 (centres undefined)	–	inconclusive: 6.51 µM [cytotoxic, partial curve, poor fit]
CCOC(=O)/C(=N/O)C1=NC(C)(C)Cc2cc(C)c(C)cc21	–	inconclusive: 0.461 µM [cytotoxic, full curve, poor fit]
O=C(Nc1ccc(S(=O)(=O)NCCc2ccccc2)cc1)c1ccc(Br)o1	–	active: 10.3 µM
Cc1cc(OCC(=O)N2CCN(c3ccccn3)CC2)c(C)cc1Br	–	inconclusive: 11.6 µM [cytotoxic, partial curve]
Cc1noc(C)c1C(=O)OCC(=O)N1CCc2ccccc21	–	inconclusive: 14.6 µM [cytotoxic, partial curve]
Cc1cc(C)cc(OCC(=O)Nc2nc(-c3ccccn3)cs2)c1	–	inconclusive: 20.6 µM [cytotoxic, single point]
COc1ccc2[nH]c3c(c2c1)CCN1C(=O)C(CC(=O)NCCC2=CCCCC2)C[C@H](C(=O)N(C(C)C)C(C)C)[C@@]31C (some centres undefined)	–	inconclusive: 29.1 µM [cytotoxic, single point]
